Reference: article PMC4038462
These are yes or no findings as the source states them, for the method shown. Binding seen in cells or lysates may run through a third protein. Some binding calls cover weakened binding; strength is not graded here.

Sequences of proteins named here, by UniProt entry; tags and fusion partners are left off.
UniProt P26367: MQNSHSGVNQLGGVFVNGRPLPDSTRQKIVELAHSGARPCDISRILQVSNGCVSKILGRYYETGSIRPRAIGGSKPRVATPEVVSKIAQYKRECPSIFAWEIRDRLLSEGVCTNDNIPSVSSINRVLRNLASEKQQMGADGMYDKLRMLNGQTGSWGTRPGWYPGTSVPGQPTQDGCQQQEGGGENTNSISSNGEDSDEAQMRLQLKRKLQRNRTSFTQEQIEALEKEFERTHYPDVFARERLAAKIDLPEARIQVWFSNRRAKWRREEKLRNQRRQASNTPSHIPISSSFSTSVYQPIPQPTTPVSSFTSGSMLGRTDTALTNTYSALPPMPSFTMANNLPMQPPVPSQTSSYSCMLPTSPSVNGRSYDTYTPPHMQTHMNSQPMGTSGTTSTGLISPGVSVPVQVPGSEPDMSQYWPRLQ
UniProt O75030: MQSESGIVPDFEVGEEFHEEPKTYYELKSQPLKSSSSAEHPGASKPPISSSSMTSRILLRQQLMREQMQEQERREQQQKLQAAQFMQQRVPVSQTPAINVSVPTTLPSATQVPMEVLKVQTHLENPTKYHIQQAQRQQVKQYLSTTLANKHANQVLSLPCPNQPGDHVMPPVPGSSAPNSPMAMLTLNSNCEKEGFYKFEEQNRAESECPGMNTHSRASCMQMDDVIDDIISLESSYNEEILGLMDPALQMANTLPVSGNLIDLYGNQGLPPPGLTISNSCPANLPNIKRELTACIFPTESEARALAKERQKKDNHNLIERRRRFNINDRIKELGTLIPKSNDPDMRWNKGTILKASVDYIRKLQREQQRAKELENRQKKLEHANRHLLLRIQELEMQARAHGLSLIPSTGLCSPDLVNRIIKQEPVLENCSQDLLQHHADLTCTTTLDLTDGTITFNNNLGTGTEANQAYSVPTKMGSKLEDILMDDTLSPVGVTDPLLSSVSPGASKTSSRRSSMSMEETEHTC

Biological target: PAX6 (endogenous, ARPE19 cells) (human (endogenous in ARPE19)) (UniProt P26367)
Assay: co-IP; reciprocal co-IP from ARPE19 protein extracts (cells scraped in RIPA buffer with protease inhibitor); IP with rabbit anti-PAX6 or rabbit anti-MITF, IgG as control; blot with mouse anti-PAX6 or mouse anti-MITF

binding: binds
Substance: MITF (microphthalmia-associated transcription factor; endogenous, ARPE19 cells) (from UniProt O75030 1-526)
